Experimental data: PubChem BioAssay AID493014 (National Center for Advancing Translational Sciences (NCATS), 2011)
This is one part of the list. Further columns of the screen follow, without active or inactive calls. Compounds called inactive in the main read-out are mostly missing here. Potencies come from curve fits of mixed quality, noted in brackets.

Test: qHTS Assay to Find Inhibitors of Chronic Active B-Cell Receptor Signaling
Details: ABC-DLBCL IkBa-CBG/CBR reporter, luminescence ratio (green luciferase fused to IkBa over red control in TMD8 lymphoma cells), 4 h
Method in brief: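 TMD8 human ABC-DLBCL cells with doxycycline-inducible IκBα–green luciferase fusion and unfused red luciferase, in 0.5% FBS medium; compounds up to 46 uM, 4 h at 37C. Green/red luminescence ratio, filter-overlap corrected, fitted to concentration-response curves.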

[1] = measured here: CBR red luminescence, cell number
[2] = measured here: IkBa-CBG green luminescence

Structure (SMILES): O=C(CN1C(=O)/C(=C\c2cccc(Br)c2)Oc2ccccc21)NCCCN1CCOCC1
- AC50 [1]: 0.1 µM [rising, full curve, poor fit]

Structure (SMILES): COC(=O)c1cnc(NNS(=O)(=O)c2ccc(Cl)cc2)nc1C(F)(F)F
- AC50 [1]: 3.55 µM [rising, single point]

Structure (SMILES): CCOC(=O)Cc1csc(NC(=O)/C=C\c2ccccc2)n1
- AC50 [1]: 1.58 µM [falling, full curve]

Structure (SMILES): CC1CCN(C(=O)c2ccc3c(c2)OCCO3)CC1
- AC50 [1]: 6.51 µM [falling, single point]

Structure (SMILES): O=C(COc1ccc([N+](=O)[O-])cc1)Nc1ccc(CN2CCOCC2)cc1
- AC50 [1]: 17.8 µM [falling, single point]

Structure (SMILES): C=CC[C@H](CC(=O)N(CCO)Cc1ccccc1)C(=O)NCCOC(=O)[C@H](CC=C)CC(=O)OC(C)(C)C
- AC50 [1]: 3.26 µM [rising, single point]

Structure (SMILES): O=C(CCCOc1ccc(Cl)cc1Cl)N1CCCc2ccccc21
- AC50 [1]: 2.91 µM [rising, single point]

Structure (SMILES): O=C(O)c1ccc(Nc2nc(-c3cc4ccccc4oc3=O)cs2)cc1O
- AC50 [1]: 7.94 µM [falling, partial curve]

Structure (SMILES): CCCc1ccc(C(=O)NNc2cc(Cl)ccc2Cl)cc1
- AC50 [1]: 2.51 µM [falling, partial curve, poor fit]

Structure (SMILES): CC(C)CN(C(=O)CSc1nn(-c2ccc(Cl)cc2)c(=S)s1)C1CCS(=O)(=O)C1 (configuration not stated)
- AC50 [1]: 29.1 µM [falling, single point]

Structure (SMILES): O=C(NC1CCS(=O)(=O)C1)c1cccc(Cl)c1 (configuration not stated)
- AC50 [1]: 29.1 µM [rising, single point]

Structure (SMILES): Cc1nc2ccc(S(=O)(=O)NCC(=O)Nc3ccc(F)cc3)cc2s1
- AC50 [1]: 35.5 µM [falling, single point]

Structure (SMILES): O=C(NCc1ccccc1)c1c(Cl)nc(Cl)c(Cl)c1Cl
- AC50 [1]: 3.16 µM [falling, single point]

Structure (SMILES): CCOc1ccccc1C(=O)Nc1ccsc1C(=O)OC
- AC50 [1]: 20.6 µM [falling, partial curve, poor fit]

Structure (SMILES): C/C(CC(=O)Nc1cccc(C(F)(F)F)c1)=N\NC(=O)c1ccncc1
- AC50 [1]: 17.8 µM [falling, partial curve, poor fit]

Structure (SMILES): COc1ccc(CNC(=O)Cn2nc(-c3ccc4c(c3)OCCO4)ccc2=O)cc1
- AC50 [1]: 3.98 µM [rising, partial curve, poor fit]

Structure (SMILES): O=C(O)Cc1ccc(NC(=O)C(c2ccccc2)c2ccccc2)cc1
- AC50 [1]: 10 µM [rising, partial curve]

Structure (SMILES): Cc1ccc(C(=O)Nn2cnc3ccccc3c2=O)cc1C
- AC50 [1]: 11.2 µM [falling, partial curve, poor fit]

Structure (SMILES): CCCN1Cc2cccc(C(=O)Nc3ccc(-c4nc5ccccc5[nH]4)cc3)c2C1=O
- AC50 [1]: 0.651 µM [rising, full curve, poor fit]

Structure (SMILES): Cc1cc(Br)ccc1SCC(=O)OCC(=O)N1CCN(C(=O)c2ccco2)CC1
- AC50 [1]: 11.2 µM [falling, partial curve, poor fit]

Structure (SMILES): O=C(O)c1cccc(-n2nnnc2SCc2ccccn2)c1
- AC50 [1]: 0.82 µM [rising, full curve]

Structure (SMILES): Cc1cccc(OCCNC(=O)CCNS(=O)(=O)c2ccc3ccccc3c2)c1
- AC50 [1]: 3.66 µM [rising, single point]

Structure (SMILES): CCOc1cc(Br)ccc1S(=O)(=O)N1CC(C)OC(C)C1 (configuration not stated)
- AC50 [1]: 29.1 µM [rising, single point]

Structure (SMILES): NC(=O)C(c1ccc(Sc2ccccc2)nn1)c1ccc(Cl)cc1Cl (configuration not stated)
- AC50 [1]: 20.6 µM [falling, single point]

Structure (SMILES): COC(=O)c1sccc1NC(=O)Nc1cccc(C)c1C
- AC50 [1]: 11.2 µM [falling, partial curve]

Structure (SMILES): O=C(NCc1ccco1)c1ccccc1NS(=O)(=O)c1cccs1
- AC50 [1]: 0.82 µM [falling, partial curve, poor fit]

Structure (SMILES): CCC(C)NS(=O)(=O)c1ccc(NC(=O)C(Sc2ccccc2)c2ccccc2)cc1 (configuration not stated)
- AC50 [1]: 1.46 µM [rising, partial curve, poor fit]

Structure (SMILES): Cc1[nH][nH]c(=O)c1N=Nc1ccc(Cl)cc1
- AC50 [1]: 0.708 µM [rising, full curve, poor fit]

Structure (SMILES): Nc1c(C(=O)CSc2nnc(Cc3ccccc3)o2)c(=O)[nH]c(=O)n1C1CC1
- AC50 [1]: 0.164 µM [rising, full curve, poor fit]

Structure (SMILES): Cn1c(SCC(=O)Nc2nccs2)nnc1-c1ccncc1
- AC50 [1]: 23.1 µM [falling, partial curve, poor fit]

Structure (SMILES): COc1ccc(-n2c(Cc3cccs3)nnc2SCC(=O)Nc2ccc3c(c2)OCCO3)cc1
- AC50 [1]: 20 µM [falling, single point]

Structure (SMILES): Cc1ccc2[nH]c(=O)c(CN(Cc3ccccc3)Cc3nnnn3C3CCCC3)cc2c1
- AC50 [1]: 9.2 µM [falling, partial curve]

Structure (SMILES): Nc1ncnc2c1ncn2[C@H]1C[C@H](O)[C@@H](CO)O1
- AC50 [1]: 9.2 µM [rising, partial curve]

Structure (SMILES): CCOc1cc(/C=N/NC(N)=S)cc(Br)c1OCc1ccccc1C
- AC50 [1]: 8.2 µM [rising, partial curve]
- AC50 [2]: 5.8 µM [falling, full curve]

Structure (SMILES): CN(C)c1ccc(C#Cc2ccc3cc(CCO)oc(=O)c3c2)cc1
- AC50 [1]: 0.517 µM [rising, full curve]

Structure (SMILES): COc1ccc(CCN2C(=O)C3C4CC(C5C(C(=O)NN)=NOC45)C3C2=O)cc1OC (configuration not stated)
- AC50 [1]: 6.51 µM [rising, single point]

Structure (SMILES): COc1cc(C(=O)Nc2ccc(C(N)=O)cc2)c([N+](=O)[O-])cc1OC
- AC50 [1]: 3.55 µM [falling, partial curve, poor fit]

Structure (SMILES): CCc1nc(N2CCN(C(=O)c3ccccc3)CC2)c2c3c(sc2n1)CCCC3
- AC50 [1]: 20 µM [falling, partial curve, poor fit]
- AC50 [2]: 15.8 µM [rising, single point]

Structure (SMILES): Cc1cc(C)n(/N=C\c2c(O)ccc3ccccc23)c(=O)c1C(N)=O
- AC50 [1]: 0.00461 µM [falling, full curve, poor fit]

Structure (SMILES): CCCn1c(O)c(N=Nc2ccc3ccccc3n2)c2ccccc21
- AC50 [1]: 0.103 µM [falling, full curve, poor fit]
